Source: patent US11566168B1, “Biocide blend for treating wellbores” (Halliburton Energy Services, Inc., priority 2021, dated 2023)

Experiment: Properties that a biocide or blend possesses (Table 1)
Text: Some of the desirable properties can include maintaining biocidal activity in fluids having a high salinity or a high concentration of total dissolved solids, thermal stability, maintaining biocidal activity in the presence of ammonia or primary amines, quick kill, maintaining biocidal activity for extended periods of time—also known as persistence, and no interaction between the biocide and other additives having a negative charge (anions) within a treatment fluid.
The second property can be different. […] It is to be understood that unlike a triazine compound, glutaraldehyde is not a formaldehyde-releasing biocide.

With 1,3,5-triazine the Persistence was “Yes”.

With `O=CCCCC=O` [Glutaraldehyde, glutaraldehyde, reference compound] the Persistence was “No”.
